Assay results taken from patent US11730712B2, “Functionalized long-chain hydrocarbon mono- and di-carboxylic acids and derivatives thereof, and their use for the prevention or treatment of disease” (ESPERVITA THERAPEUTICS, INC., priority 2021, dated 2023).
Some entries share one result that the patent states for a list of compounds.

Legend:
[1] = Single and repeat dose plasma and tissue pharmacokinetics in male C57BL/6 mice; format: in vivo; conditions: mouse, 20 mg/kg PO
Text: Materials and methods. The study involved two arms; a single dose pharmacokinetic study and a 4-day repeated-dose pharmacokinetic study. For each arm, 56 inbred male C57BL/6 mice, aged at 6-7 week, were included. All animals were purchased from Charles River Lab (CRL, MA). Upon their arrival, they were kept in special-pathogen-free environment all the time. Briefly, they were housed in group on corncob bedding (ScottPharma, MA) in Innovive® caging system (Innovive, Calif.) on a 12-hour light-dark cycle (0700-1900) at 68-74° F., and 30-70% humidity. They were allowed continually to access water and regular rodent Purina 5001 diet (ScottPharma, MA) ad libitum and to acclimate in the facility for 5 days. Animal handling and procedures were conducted under the protocols and/or guidelines approved by the Institutional Animal Care and Use Committee (IACUC) of […] Biosciences, Inc. […] Also, 2× drug vehicle (3% CMC+0.4% Tween-20) was prepared and stored at 4° C. for a week. […] All three samples from each mouse were analyzed for either Compound I-1 or Compound I-32 contents by Integrated Analytical Solutions (Berkeley, Calif.) and the results were used for the generation of the pharmacokinetic graphs. […] All plasma and tissue samples were analyzed by discovery grade bioanalytical method developed for estimation of each test compound in plasma and tissue samples using LC-MS/MS systems. […]

[2] = tested on: Hepa1-6 murine hepatoma cells; assay: Cell proliferation assay (presto blue, 72 h); format: cell-based, mouse; conditions: 20:1 compound/regorafenib; 100 μM: 5 μM; CI<1 synergism
Protocol: (§1) Cell cultures. Hep3B (ATCC) and Hepa1-6 (ATCC) cells were seeded in 96-well plates at a density of 3000 cells/well with complete media. On day 2, media in each well was aspirated and replaced with 100 μl of fresh complete media and cells were treated with or without Compound I-1, Compound I-32, Compound I1-84, and Compound I-85, in a concentration dependent manner. Then, cells were incubated in an incubator for 72 h. On day 5, 10 μl of presto blue (Invitrogen, cat #A13261) cell viability reagent was added in each 96-well plate and incubated at 37° C. for 1-2 h. After incubation, fluorescence was measured with an excitation/emission wavelength of 560/590 nm.
(§2) Proliferation assay. […] After incubation, fluorescence was measured with an excitation/emission wavelength of 560/590 nm. Anti-proliferative combination effects of Compound I-1 or Compound I-32 and regorafenib were determined in Hep3B and Hepa1-6 cells. Drug combination interaction was determined by the Chou-Talalay method (23), which is based on well-known equations for different reaction sequences and mechanisms, and different types of inhibition. These equations provide the theoretical basis for the combination index (CI)-isobologram equation that allows quantitative determination of drug interactions, where CI<1, =1, and >1 indicate synergism, additive effect, and antagonism, respectively. […]

[3] = tested on: Hep3B human hepatocarcinoma cells; assay: Cell proliferation assay (presto blue, 72 h); format: cell-based; conditions: 66.67:1 compound/regorafenib; all dose combinations except 5:0.075; CI<1 synergism
Protocol: as §1, §2

Structure (SMILES) | lower bioavailability in brain compared to liver [1] | Combination Index (CI) with regorafenib, Hepa1-6 cells [2] | Combination Index (CI) with regorafenib, Hep3B cells [3]
CC(C)(CCCCc1ccc(CCCCC(C)(C)C(=O)O)cc1)C(=O)O [Compound I-1, 6-[4-(5-carboxy-5-methylhexyl)-phenyl]-2,2-dimethylhexanoic acid] | 300-400 fold | < 1 | < 1
CC(C)(CCCCc1cccc(CCCCC(C)(C)C(=O)O)c1)C(=O)O [Compound I-32, 6-[3-(5-carboxy-5-methylhexyl)-phenyl]-2,2-dimethylhexanoic acid] | 300-400 fold | < 1 | < 1
